According to US20030158378A1:
These are yes or no findings as the source states them, for the method shown. Binding seen in cells or lysates may run through a third protein. Some binding calls cover weakened binding; strength is not graded here. Tags and fused reporters may be left off the sequences shown.

Protein sequences, listed by entry. Tags and fused reporters are not part of them. Residues count along the entry.
UniProt P22004, residues 382-513: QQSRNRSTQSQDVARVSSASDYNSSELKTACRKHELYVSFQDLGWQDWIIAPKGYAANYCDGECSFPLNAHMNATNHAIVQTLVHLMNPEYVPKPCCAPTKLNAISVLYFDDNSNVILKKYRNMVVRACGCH
UniProt P22003, residues 317-454: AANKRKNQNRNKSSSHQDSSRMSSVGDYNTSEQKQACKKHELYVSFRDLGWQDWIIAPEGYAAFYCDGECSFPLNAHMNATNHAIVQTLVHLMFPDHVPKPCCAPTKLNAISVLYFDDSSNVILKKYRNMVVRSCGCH

Key:
[1] = biological target: BMP6 (UniProt P22004); experiment: co-immunoprecipitation: mCHL2-FLAG mixed with BMP6, anti-mCHL2 antiserum, protein A agarose beads, western blot for BMP6
[2] = biological target: BMP5 (UniProt P22003); experiment: co-immunoprecipitation: mCHL2-FLAG mixed with BMP5, anti-mCHL2 antiserum, protein A agarose beads, western blot for BMP5
[3] = biological target: T1, GDF5 (BMP14) (UniProt P43026); experiment: co-immunoprecipitation with anti-mCHL2 antiserum and protein A agarose, Western blot; mCHL2-FLAG at 600 ng/ml
T1 sequence (looked up): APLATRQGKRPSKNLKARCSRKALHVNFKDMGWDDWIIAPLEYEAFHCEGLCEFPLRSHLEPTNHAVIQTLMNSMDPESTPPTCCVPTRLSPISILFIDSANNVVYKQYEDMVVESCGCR

[4] = biological target: BMP5 (UniProt P22003); experiment: as above
[5] = biological target: T2, BMP2 (UniProt P12643); experiment: as above
T2 sequence (looked up): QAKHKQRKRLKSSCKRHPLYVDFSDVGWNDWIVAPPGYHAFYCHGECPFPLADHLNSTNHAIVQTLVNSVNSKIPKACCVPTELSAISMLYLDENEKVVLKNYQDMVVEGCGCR

[6] = biological target: T3, BMP4 (UniProt P12644); experiment: as above
T3 sequence (looked up): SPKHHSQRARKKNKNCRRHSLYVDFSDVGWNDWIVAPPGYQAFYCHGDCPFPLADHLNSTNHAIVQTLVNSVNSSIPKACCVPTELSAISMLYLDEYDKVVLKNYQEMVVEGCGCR

[7] = biological target: BMP6 (UniProt P22004); experiment: as above
[8] = biological target: T3, BMP4; experiment: co-immunoprecipitation: mCHL2-FLAG mixed with BMP4, anti-mCHL2 antiserum, protein A agarose beads, western blot for BMP4
[9] = biological target: T1, GDF5 (BMP14); experiment: co-immunoprecipitation: mCHL2-FLAG mixed with GDF5 (BMP14), anti-mCHL2 antiserum, protein A agarose beads, western blot for GDF5
[10] = biological target: T2, BMP2; experiment: co-immunoprecipitation: mCHL2-FLAG mixed with BMP2, anti-mCHL2 antiserum, protein A agarose beads, western blot for BMP2

binding [1]: binds
binding [2]: binds
binding [3]: binds
binding [4]: binds
binding [5]: binds
binding [6]: binds
binding [7]: binds
binding [8]: binds
binding [9]: binds
binding [10]: binds
B1: FLAG-tagged murine CHL2 polypeptide (mCHL2-FLAG) (protein, not shown: small tags and cut ends)
chain: LSRSGKVCLFGEKIYTPGQSWHPYLEPQGTIYCVRCTCSENGHVNCYRLRCPPLHCSQPVMEPQQCCPRCVDPHVPSGLRVPLKSCQLNETTYQHGEIFSAQELFPARLSNQCVLCSCIEGHTYCGLMTCPEPSCPTTLPLPDSCCQTCKDRTTESSTEENLTQLQHGERHSQDPCSERRGPSTPAPTSLSSPLGFIPRHFQSVGMGSTTIKIILKEKHKKACTHNGKTYSHGEVWHPTVLSFGPMPCILCTCIDGYQDCHRVTCPTQYPCSQPKKVAGKCCKICPEDEAEDDHSEVISTRCPKVPGQFQVYTLASPSPDSLHRFVLEHEASDQVEMYIWKLVKGIYHLVQIKRVRKQDFQKEAQNFRLLTGTHEGYWTVFLAQTPELKVTASPDKVTKTL
